Results are given in words; binding and its absence hold for the method and conditions named. Binding seen in cells or lysates may run through a third protein. Some results given as binding are weak or reduced against the parent protein; the word gives no strength. For part of these data: Tags and fused reporters may be left off the sequences shown.
Assays:
Myc-DREAM(71-256) = target: T1, Myc-DREAM(71-256) (UniProt Q9Y2W7); experiment: co-IP; whole cell extracts (200 ug) of cotransfected HEK293T cells; IP with 1 ug rabbit anti-Myc, western blot with anti-Flag; 1 mM CaCl2, up to 2 mM EGTA or DMSO in the reaction did not change the band; repaglinide in the reaction significantly reduced it
T1 sequence: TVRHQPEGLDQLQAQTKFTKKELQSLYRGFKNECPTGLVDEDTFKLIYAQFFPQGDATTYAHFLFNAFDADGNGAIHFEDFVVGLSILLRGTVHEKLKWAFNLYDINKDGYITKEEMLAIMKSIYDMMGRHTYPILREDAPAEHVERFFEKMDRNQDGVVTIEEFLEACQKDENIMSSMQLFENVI

[1] = target: T2, endogenous DREAM (mouse (endogenous in mouse brain and N2a cells)) (UniProt Q9QXT8); experiment: co-IP; whole cell extracts (200 ug) of mouse hippocampus and cerebral cortex; IP with 5 ug mouse monoclonal anti-DREAM 1B1, western blot with anti-PS2
T2 sequence: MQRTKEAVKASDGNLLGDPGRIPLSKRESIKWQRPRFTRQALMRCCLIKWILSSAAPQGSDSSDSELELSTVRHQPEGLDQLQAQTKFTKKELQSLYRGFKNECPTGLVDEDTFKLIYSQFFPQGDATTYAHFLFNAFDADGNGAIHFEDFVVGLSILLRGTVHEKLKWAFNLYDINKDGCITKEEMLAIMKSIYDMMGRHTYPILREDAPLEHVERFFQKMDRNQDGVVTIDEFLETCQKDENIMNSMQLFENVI

[2] = target: T2, endogenous DREAM (mouse (endogenous in mouse brain and N2a cells)); experiment: co-IP; whole cell extracts (200 ug) of N2a cells; IP with 5 ug mouse monoclonal anti-DREAM 1B1, western blot with anti-PS2

Flag-Ct-PS2(335-448) (from UniProt P49810 335-448) (domain or fragment)
binding (Myc-DREAM(71-256)): binds

full length PS2 holoprotein, endogenous (from UniProt Q61144 1-448)
binding [1]: binds
binding [2]: binds

From paper PMC6287014
